Measured data: PubChem BioAssay AID1259308 (NCATS, 2017)
In all, the deposit lists about 59,000 reagents; shown is a part drawn at random. Of all reagents, about 1,510 (2.6%) got an active call. 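Calls use total luciferase alone and ignore viability, so some active siRNAs may act by altering cell number.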 A number with no mark means an inactive call. Reagents against one gene are numbered here. Further read-outs or replicates are left out here. Reagent sequences are not shown.

- Test: 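Genes whose loss raises luciferase production in HEK293 cells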 (primary screen)
- System: human HEK293 embryonic kidney cells stably expressing firefly luciferase (HEK-CMV-Luc2-Hygro)
- Reagents: single siRNA against human genes, 0.8 pmol siRNA per well
- Timing: 72 h
- Read-out: 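Luciferase light (ONE-Glo) measured on one replicate plate set and viability (CellTiter-Glo) on the other, scaled to a negative control siRNA, with robust z-scores and luciferase per cell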
- Scale: total luciferase, z-score: higher = more reporter protein produced
- Rule for the call: 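An siRNA counts as active if its total luciferase robust z-score exceeds 3; genes with two or more such siRNAs out of three were retested with fresh siRNAs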
- Meaning of the calls: active = raised luciferase; inactive = no rise

total luciferase, z-score, by gene knocked down and reagent
LINC01545 (long independently transcribed non-coding RNA 1545): #1 -1.9; #2 -0.781; #3 -0.759
CSNK1G3 (casein kinase 1 gamma 3): #1 0.0583; #2 0.368; #3 0.13
TIPARP (TCDD inducible poly(ADP-ribose) polymerase): #1 -0.477; #2 2.16; #3 -0.949
SLC5A2: #1 -0.421; #2 -1.03; #3 -0.423
OPRK1 (opioid receptor kappa 1): #1 -2.59; #2 -0.263; #3 -0.811
PCDHB4 (protocadherin beta 4): #1 -0.0352; #2 -0.243; #3 1.19
RMND5A (required for meiotic nuclear division 5 homolog A): #1 -1.98; #2 2.07; #3 -0.563
SMIM21 (small integral membrane protein 21): #1 4.02 (active); #2 -0.593; #3 -0.712

Copied from the listing, 2 entries:
total luciferase, z-score, by gene knocked down and reagent
PCDHB4 (protocadherin beta 4): #2 -0.243; #3 1.19
